Test results taken from patent publication US20080058373A1, “Compositions and Methods for Treating or Preventing Glaucoma or Progression Thereof” (priority 2006, published 2008).
This continues a long series; more values of the same kind are listed elsewhere.

Test system: New Zealand White rabbits
Assay: Intraocular pressure (IOP) in rabbits, topical dosing four times daily
Type: in vivo
Settings: treated right eyes, P.M. readings
Method: Seventy-five rabbits underwent two weeks of IOP training to condition them for IOP measurement. IOP was determined for both eyes of each animal using a Medtronic Solan, Model 30 classic pneumatonometer. Proparacaine hydrochloride 0.5% (1 drop) was delivered to each eye prior to IOP measurement. A two-point diurnal curve was established: IOP was recorded on Monday, Wednesday, and Friday of each week, at 8 a.m. and 12 p.m., with a ±1 hour range for each of these times. The time of the measurements was recorded.
On Days 1-31, animals received daily topical doses of the appropriate test article into the right eye. Animals were dosed four times per day, with doses administered 2 hours apart. Doses were administered using a calibrated 50-μL pipette. The eyelids were held close for 10 seconds immediately following dosing. The time of each dose administration was recorded.
Intraocular pressure (“IOP”) was determined for both eyes of each animal on Days 3, 5, 10, 12, 16, 18, 22, 24, 26, 30, and 32. IOP was evaluated with a Medtronic Solan, Model 30 classic pneumatonometer. Proparacaine hydrochloride 0.5% (1 drop) was delivered to each eye prior to IOP measurement. IOP was measured on Monday, Wednesday, and Friday of each week. A two-point diurnal curve was established: IOP was recorded at 8 a.m. and 12 p.m. on Day 3, and at 8 a.m. and 2 p.m. on later days, with a ±1 hour range for each of these times. The time of the measurements was recorded.
Descriptive statistics were prepared for IOP data of each treatment group (left and right eyes separately) at each measurement interval. The statistics included the number of observations (“N”), mean, standard deviation (“STD”), and standard error (“SEM”). Statistical analyses were conducted on IOP results using Statistical Analysis Systems (SAS Institute, Inc., Cary, N.C., V8.0). Parameters were evaluated using analysis of variance/GLM Procedure followed by Tukey's Standardized Range Test (Tukey, 1985) for post hoc comparisons of group means. The level of significance was set at a probability of p<0.05 for all statistical procedures. Group IOP means were compared at each interval, with left and right eyes compared separately.

Cc1ccc2c(NCC(O)(CC(C)(C)c3cc(F)cc4c3OCC4)C(F)(F)F)cccc2n1 (centres unmarked)
Intraocular Pressure (MEAN) (Day 30, 1 mg/g (Group D)): 21.8 mmHg
Intraocular Pressure (MEAN) (Day 30, 5 mg/g (Group C)): 22.4 mmHg
Intraocular Pressure (MEAN) (Day 32, 1 mg/g (Group D)): 22.9 mmHg
Intraocular Pressure (MEAN) (Day 32, 5 mg/g (Group C)): 22.7 mmHg
Intraocular Pressure (MEAN) (Day 32, 10 mg/g (Group B)): 23.3 mmHg
Intraocular Pressure (MEAN) (Pre-Study, 1 mg/g (Group D)): 24.2 mmHg
Intraocular Pressure (MEAN) (Pre-Study, 5 mg/g (Group C)): 24.5 mmHg
Intraocular Pressure (MEAN) (Pre-Study, 10 mg/g (Group B)): 24.0 mmHg
